Structures can show the parent of a compound that is named as a salt. ± gives the standard deviation of the averaged measurements. The list shows a part of the results. Repeats are few or missing, and single values can be far off.

The test system of test [1] is MIA PaCa-2 parental. The test is described as follows: parental cell viability relative to untreated parental control; higher = more surviving cells. To be noted: treatment time: 9 days.
The test system of test [2] is MIA PaCa-2 persister. The test is described as follows: persister cell viability relative to untreated persister control; higher = more surviving persister cells. To be noted: treatment time: 9 days; cell state: persister (100 nM gemcitabine + 100 nM Torin1).

Turning to `Cn1cc(-c2ccc3c(c2)CCN3C(=O)Cc2cccc(C(F)(F)F)c2)c2c(N)ncnc21` (inhibitor concentration: 300nM), the parental cell viability in test [1] is 110%. Moreover, the persister cell viability in test [2] was found to be 94%.
In the same order, the values of `CC(/C=C/C(=O)NO)=C\[C@@H](C)C(=O)c1ccc(N(C)C)cc1` [Trichostatin A] (inhibitor concentration: 100nM) are 83% and 11.7 ± 12%.
In the case of `CNCc1ccc(-c2cc(-c3nc(-c4ccc(S(=O)(=O)C(C)C)cc4)cnc3N)on2)cc1` [Berzosertib] (inhibitor concentration: 100nM), the parental cell viability in test [1] amounted to 97%. Further, the persister cell viability in test [2] is 20%.
Regarding `COC(=O)c1ccc(O)c(NC(=O)COc2ccc(C34CC5CC(CC(C5)C3)C4)cc2)c1` (inhibitor concentration: 10µM), the parental cell viability in test [1] came to 98.5%. In test [2], the persister cell viability is 102%.
`CN(C)C(=O)c1cc2cnc(Nc3ccc(N4CCNCC4)cn3)nc2n1C1CCCC1` (inhibitor concentration: 1µM): the parental cell viability in test [1] worked out at 97%. Moreover, the persister cell viability in test [2] stood at 210%.
In the same order, the values of `c1cc(-c2cnn3cc(-c4ccc(OCCN5CCCCC5)cc4)cnc23)ccn1` [Dorsomorphin (hydrochloride)] (inhibitor concentration: 10µM) are 81% and 99%.
As to `COc1ncc(-c2ccc3nccc(-c4ccnnc4)c3c2)cc1NS(=O)(=O)c1ccc(F)cc1F` (inhibitor concentration: 1µM), in test [1], the parental cell viability worked out at 11%. The persister cell viability in test [2] amounted to 96%.
In the same order, the values of `COc1ccc(CNC(=O)Nc2ncc([N+](=O)[O-])s2)cc1` [GSK3β Inhibitor VIII] (inhibitor concentration: 3µM) are 78% and 108%.
Regarding `CC(C)n1ncnc1-c1cn2c(n1)-c1ccc(O[C@@H](C)C(N)=O)cc1OCC2` (inhibitor concentration: 10µM), the parental cell viability in test [1] was 80.5%. Moreover, the persister cell viability in test [2] was 77%.
Turning to `COc1cc(OC)c2cc(-c3ccncc3)cnc2c1` [DMPQ (hydrochloride)] (inhibitor concentration: 3µM), in test [1], the parental cell viability was determined as 101%. The persister cell viability in test [2] came out at 150%.
As to `CN(C)C/C=C/C(=O)Nc1cc2c(Nc3ccc(F)c(Cl)c3)ncnc2cc1O[C@H]1CCOC1` [Afatinib] (inhibitor concentration: 1µM), the parental cell viability in test [1] was found to be 98%. Further, the persister cell viability in test [2] stood at 92%.
As to `Cc1c2c(nn1C)CSCc1cc(n(C)n1)CSc1cc(c3ccccc3c1)OCCCc1c(C(=O)O)n(C)c3c-2c(Cl)ccc13` (inhibitor concentration: 10µM), in test [1], the parental cell viability was 65%. For the same molecule, in test [2], the persister cell viability came to 5%.
On to `C[C@@H]1COCCN1c1cc(-c2ccnn2C)c2ccnc(-c3ccn[nH]3)c2n1` (inhibitor concentration: 30nM), for which, in test [1], the parental cell viability is 100%. Further, the persister cell viability in test [2] is 1%.
`CC(C)C[C@H](NC(=O)[C@H](CCc1ccccc1)NC(=O)CN1CCOCC1)C(=O)N[C@@H](Cc1ccccc1)C(=O)N[C@@H](CC(C)C)C(=O)[C@@]1(C)CO1` [Carfilzomib] (inhibitor concentration: 1nM): the parental cell viability in test [1] worked out at 100%. For the same molecule, the persister cell viability in test [2] is 96%.
With `CN1C(=O)c2sccc2N(C)c2nc(Nc3ccc(S(N)(=O)=O)cc3)ncc21` (inhibitor concentration: 10µM), the parental cell viability in test [1] was determined as 13%. Further, in test [2], the persister cell viability stood at 98%.
On to `CNc1nc(-c2ccc3c(N)n[nH]c3c2)cc(N2C[C@@H](C(=O)NC3CCCCC3)CC[C@H]2C)n1` (inhibitor concentration: 10µM), for which the parental cell viability in test [1] amounted to 102%. Moreover, in test [2], the persister cell viability was 400%.
Consider `Cc1cccc(CC(=O)N2CCc3c2ccc(-c2cn(C)c4ncnc(N)c24)c3F)n1` (inhibitor concentration: 30µM), for which the parental cell viability in test [1] worked out at 102%. Also, in test [2], the persister cell viability turned out to be 160%.
In the case of `COc1c(C)cnc(Cn2cnc3c(Cl)nc(N)nc32)c1C` (inhibitor concentration: 300nM), the parental cell viability in test [1] turned out to be 5%. Further, in test [2], the persister cell viability came out at 100%.
For `Nc1ccccc1NC(=O)c1ccc(CNC(=O)OCc2cccnc2)cc1` [Entinostat] (inhibitor concentration: 300nM), the parental cell viability in test [1] was 103%. The persister cell viability in test [2] is 10%.
On to `Cn1nccc1Nc1nccc(-c2ccn([C@H](CO)c3ccc(Cl)c(F)c3)c(=O)c2)n1` [Ravoxertinib] (inhibitor concentration: 10µM), for which, in test [1], the parental cell viability worked out at 83.5%. The persister cell viability in test [2] is 102%.
As to `CS(=O)(=O)N1CCN(Cc2cc3nc(-c4cccc5[nH]ncc45)nc(N4CCOCC4)c3s2)CC1` [Pictilisib] (inhibitor concentration: 10µM), the parental cell viability in test [1] amounted to 29%. For the same molecule, the persister cell viability in test [2] was determined as 125%.
For `C[C@@H]1COCCN1c1cc(C2([S@](C)(=N)=O)CC2)nc(-c2cc[nH]c3nccc2-3)n1` (inhibitor concentration: 3µM), the parental cell viability in test [1] was 80%. Moreover, the persister cell viability in test [2] is 12%.
Turning to `COc1cc2c(NC3CCN(C)CC3)cc(-c3ccc(C)o3)nc2cc1OCCCN1CCCC1` (inhibitor concentration: 10nM), the parental cell viability in test [1] amounted to 100%. The persister cell viability in test [2] was found to be 101%.
For `Nc1ncccc1-c1nc2ccc(-c3ccccc3)nc2n1-c1ccc(C2(N)CCC2)cc1` [Miransertib] (inhibitor concentration: 1µM), the parental cell viability in test [1] came out at 97%. Further, the persister cell viability in test [2] came to 106%.

Values taken from the supplement of paper PMC9671908.
